{"sequences": {"note": "Chains of the proteins cited; added tags and fusions are not shown.", "UniProt P09471, whole entry, looked up": "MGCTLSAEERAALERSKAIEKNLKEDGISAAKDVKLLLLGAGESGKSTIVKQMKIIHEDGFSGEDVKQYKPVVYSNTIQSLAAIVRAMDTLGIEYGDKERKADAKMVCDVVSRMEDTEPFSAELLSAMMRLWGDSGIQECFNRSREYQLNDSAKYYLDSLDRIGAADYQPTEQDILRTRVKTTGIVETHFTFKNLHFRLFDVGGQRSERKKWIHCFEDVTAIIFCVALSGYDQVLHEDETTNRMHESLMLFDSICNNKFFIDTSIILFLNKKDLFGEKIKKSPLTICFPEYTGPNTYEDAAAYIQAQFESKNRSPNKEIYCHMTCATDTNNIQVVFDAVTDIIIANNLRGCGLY"}, "source": "PubChem BioAssay AID1439", "about": "(NMMLSC, 2008)", "note": "The whole screen tested about 220,000 compounds, of which about 770 (0.35%) were called active. The inconclusive results got no clear call from the source; some entries with a clear call stand among them for comparison. Cut-off read from the data, not from the text of the source: active = binding response below about 49% or above about 150%; inconclusive = no clear call, values can overlap the other calls; inactive = in between.", "data": [{"target": "Guanine nucleotide-binding protein G(o) subunit alpha (Homo sapiens) (UniProt P09471)", "assay": "RGS7-Galphao binding modulators, primary screen, biochemical, multiplexed bead flow cytometry (AID 1439);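 note: fluorescent Galphao held in activated GDP-AlF4 state binding bead-coupled RGS7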", "details": "at 10 µM, actives lie on both sides", "values": [{"smiles": "O=C1NC(=O)/C(=C/c2ccc(OS(=O)(=O)c3ccc(F)cc3F)cc2)N1", "binding response (% of control)": "inconclusive: -632%"}, {"smiles": "O=C(CONS(=O)(=O)c1ccc(Cl)cc1)NCCNc1ncc(C(F)(F)F)cc1Cl", "binding response (% of control)": "inactive: 91.6%"}, {"smiles": "O=S(=O)(c1ccc(Cl)cc1)N1CCC(n2cccc2)CC1", "binding response (% of control)": "inconclusive: 220%"}, {"smiles": "CN(C)C(=S)Nc1ccc(N2CCOCC2)cc1", "binding response (% of control)": "inconclusive: 106%"}, {"smiles": "COc1cccc(N2CCN(CC(=O)NC3=Nc4ccccc4N=C(C)C3c3ccccc3)CC2)c1", "note": "(centres undefined)", "binding response (% of control)": "inconclusive: 84%"}, {"smiles": "COc1cc2nc(CSc3nc(-c4ccc(F)cc4)cs3)[nH]c(=O)c2cc1OC", "binding response (% of control)": "inactive: 97.3%"}, {"smiles": "Cc1cc(C(=O)COc2ccc3ccc(=O)oc3c2)c(C)n1C", "binding response (% of control)": "inconclusive: 104%"}, {"smiles": "Cc1ccc(C2=NNC3(CCOC(C)(C)C3)S2)cc1", "note": "(centres undefined)", "binding response (% of control)": "inactive: 102%"}, {"smiles": "CC(=O)NC(CCS(C)(=O)=O)C(=O)Nc1cc(Cl)ccc1Cl", "note": "(centres undefined)", "binding response (% of control)": "inactive: 97.8%"}, {"smiles": "CC(C(=O)Nc1cccnc1)C1Sc2ccccc2NC1=O", "note": "(centres undefined)", "binding response (% of control)": "inactive: 110%"}, {"smiles": "O=C(N/N=C/c1ccncc1)c1nn(Cc2ccccc2)c(=O)c2ccccc12", "binding response (% of control)": "inconclusive: 109%"}, {"smiles": "Nc1nnnn1CC(=O)N/N=C/C=C/c1ccccc1", "binding response (% of control)": "inconclusive: 81.9%"}, {"smiles": "CC(C)C(=O)N(Cc1ccccc1)c1ccccn1", "binding response (% of control)": "active: 208% [activator]"}, {"smiles": "CN(C)S(=O)(=O)c1cccc(NC(=O)COC(=O)/C=C/c2ccc3c(c2)OCO3)c1", "binding response (% of control)": "inconclusive: 118%"}, {"smiles": "CCc1ccc(Nc2ncnc3nc[nH]c23)cc1", "binding response (% of control)": "inconclusive: 101%"}, {"smiles": "COc1c(S(=O)(=O)NCCCN2CCOCC2)ccc(Cl)c1Cl", "binding response (% of control)": "inconclusive: 109%"}, {"smiles": "CCSc1ccccc1C(=O)NCc1cccnc1", "binding response (% of control)": "inactive: 81.2%"}, {"smiles": "CCNC(=O)c1cc2ccccc2o1", "binding response (% of control)": "active: 14.7%"}, {"smiles": "Cc1cc(N=NC(=O)c2ccccc2)ccc1O", "binding response (% of control)": "inconclusive: 89.3%"}, {"smiles": "CCOc1ccc(C(C)NC(=O)Cc2ccccc2F)cc1OCC", "note": "(centres undefined)", "binding response (% of control)": "inconclusive: 99.3%"}, {"smiles": "O=C1CCC/C(=N\\NC(=O)c2ccc(CSc3cccc4cccnc34)cc2)C1", "binding response (% of control)": "inconclusive: 79.6%"}, {"smiles": "CC(C)(C)Nc1nc(Cl)nc(NCc2ccccc2)n1", "binding response (% of control)": "inconclusive: 24.8%"}, {"smiles": "Clc1ccc(-n2cccc2)cn1", "binding response (% of control)": "inconclusive: 87.6%"}, {"smiles": "Clc1ccccc1C1CC(c2ccccc2)=Nc2ccccc2N1", "note": "(centres undefined)", "binding response (% of control)": "inconclusive: 117%"}, {"smiles": "CCCCCCCSc1nnc(N)s1", "binding response (% of control)": "inconclusive: 71.1%"}, {"smiles": "CC(C)Oc1nc(-c2ccc(Cl)cc2)nc2ccccc12", "binding response (% of control)": "inconclusive: 94.7%"}, {"smiles": "CCOCCCNC(=O)C(NC(=O)Cc1cccs1)c1ccc(C)cc1", "note": "(centres undefined)", "binding response (% of control)": "inconclusive: 117%"}, {"smiles": "C/C=C(/C)C(=O)Nc1cccc(C2=NOC3(C2)C[C@@H](C(N)=O)N(C(=O)CCCCC)C3)c1", "note": "(some centres undefined)", "binding response (% of control)": "inconclusive: 79%"}, {"smiles": "O=c1c(Cl)c(N2CCOCC2)cnn1-c1ncc(C(F)(F)F)cc1Cl", "binding response (% of control)": "inconclusive: 92.4%"}, {"smiles": "CC1CCc2nc(NC(=O)CN3CCN(c4ccccc4)CC3)sc2C1", "note": "(centres undefined)", "binding response (% of control)": "inactive: 103%"}, {"smiles": "Cc1ccc(Nc2ccc(N)cc2S(=O)(=O)O)cc1", "binding response (% of control)": "inconclusive: -47%"}, {"smiles": "CCCCCC1=NN2C(=O)CC(=O)N=C2S1", "binding response (% of control)": "inconclusive: 99.3%"}, {"smiles": "O=C(/C=C/c1cn(-c2ccccc2)nc1-c1cccc(Cl)c1)N1CCN(c2ccccn2)CC1", "binding response (% of control)": "inconclusive: 127%"}, {"smiles": "COC(=O)C(NNc1ccccc1)(NC(=O)c1cccc(F)c1)C(F)(F)F", "note": "(centres undefined)", "binding response (% of control)": "inactive: 98.7%"}, {"smiles": "CC/C(=N\\NC(N)=O)c1ccc(OC(F)F)cc1", "binding response (% of control)": "inconclusive: 109%"}, {"smiles": "Nn1c(SCc2c(F)cccc2F)nnc1-c1ccccn1", "binding response (% of control)": "inconclusive: 251%"}, {"smiles": "O=C(CCNC(=O)Cn1ccc2ccccc2c1=O)NCC1CCCC1c1ccccc1", "note": "(centres undefined)", "binding response (% of control)": "inconclusive: 97.8%"}, {"smiles": "O=C(Nc1nnc(-c2ccc(F)cc2)o1)c1ccco1", "binding response (% of control)": "inconclusive: 50.4%"}, {"smiles": "O=C(Cn1cnc2ccccc21)OCC(=O)N1CCCc2ccccc21", "binding response (% of control)": "inactive: 101%"}, {"smiles": "CC(=O)Nc1ccc(S(=O)(=O)N(C)c2ccc(OCC(=O)OCC(=O)NCc3ccco3)cc2)cc1", "binding response (% of control)": "inconclusive: 92.1%"}, {"smiles": "COc1ccc(CC(=O)NNC(=O)c2nn(Cc3ccccc3)c(=O)c3ccccc23)cc1OC", "binding response (% of control)": "inconclusive: 134%"}, {"smiles": "CC(=O)c1cccc(CN2CCN(C3CCCCC3)C(CCO)C2)c1", "note": "(centres undefined)", "binding response (% of control)": "inconclusive: 110%"}, {"smiles": "Clc1ccc(-n2nnc(-c3cccnc3)n2)cc1Cl", "binding response (% of control)": "active: 43.3%"}, {"smiles": "N/N=C(\\Cc1cscn1)c1ccc(O)cc1O", "binding response (% of control)": "inconclusive: 102%"}, {"smiles": "COc1ccc(NS(=O)(=O)c2cc(NC(=O)CC(=O)c3ccc([N+](=O)[O-])cc3)ccc2C)cc1", "binding response (% of control)": "inconclusive: 104%"}, {"smiles": "CCC(=O)NC(=S)Nc1ccc(N2CCN(C(=O)c3ccc(Cl)cc3)CC2)cc1", "binding response (% of control)": "inconclusive: 88.1%"}, {"smiles": "COc1ccc(N2CCN(C(c3cc(OC)ccc3OC)c3nnnn3CC3CCCO3)CC2)cc1", "note": "(centres undefined)", "binding response (% of control)": "inactive: 99%"}, {"smiles": "O=C(/C=C/c1cccc([N+](=O)[O-])c1)Nc1cccc(NC(=O)c2cccs2)c1", "binding response (% of control)": "inactive: 99.1%"}, {"smiles": "COc1ccc(C2CC(=O)C3=C(C2)Nc2ccccc2N(C(=O)CCC(=O)O)C3c2ccc(F)cc2)cc1OC", "note": "(centres undefined)", "binding response (% of control)": "inconclusive: 196%"}, {"smiles": "CN1CCN(c2nc(Nc3ccccc3)nc(N)c2[N+](=O)[O-])CC1", "binding response (% of control)": "inconclusive: 96.8%"}, {"smiles": "O=C(CCC1CCCC1)Nc1ccc(C(=O)NCc2cccnc2)cc1", "binding response (% of control)": "inactive: 99.7%"}, {"smiles": "CCCOC(=O)C1=C(C)N(C)C(=O)NC1c1cc2c(cc1[N+](=O)[O-])OCO2", "note": "(centres undefined)", "binding response (% of control)": "inconclusive: 93.8%"}, {"smiles": "O=C(O)c1c(-c2ccccc2)c(-c2ccccc2)nc2ccccc12", "binding response (% of control)": "inconclusive: 84.4%"}, {"smiles": "O=C(C[n+]1cccc(/C=N/O)c1)N1CCCc2ccccc21", "binding response (% of control)": "inactive: 99.6%"}, {"smiles": "Clc1cccc(-c2csc(Nc3cccnc3)n2)c1", "binding response (% of control)": "inconclusive: -245%"}, {"smiles": "O=[N+]([O-])c1cc(C(F)(F)F)c(Cl)cc1N1CCN(CCO)CC1", "binding response (% of control)": "inactive: 99.6%"}, {"smiles": "CC(=O)N1N=C2c3ccccc3CCC2C1c1cccs1", "note": "(centres undefined)", "binding response (% of control)": "inconclusive: 913%"}, {"smiles": "O=C(Cc1ccccc1)Nc1c[nH]c(=O)[nH]c1=O", "binding response (% of control)": "inactive: 99.3%"}, {"smiles": "CC(=O)Nc1ccc(OC(=O)Oc2ccc(NC(C)=O)cc2)cc1", "binding response (% of control)": "inconclusive: 114%"}]}]}
